Results reported in the supplement of paper PMC12823440, “Inhibitors supercharge kinase turnover through native proteolytic circuits” (Nature, 2025).
Counter-ions that a name gives are not always drawn. The list shows a part of the results. The calls rarely recur for the same compound in another form.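 Kinases, fused to nanoluciferase, were expressed in K562 cells; luminescence was measured every 4 h from 2 to 18 h as percent of control (DMSO = 100%, positive control = 0%). A time point is decreased if signal falls significantly (2 sigma). Hits were called by the authors by a rule that is not shown; the count of time points alone does not decide it.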

Chains of the proteins cited; added tags and fusions are not shown. Lines headed by an entry give the natural chain unless they say otherwise; changes in a name come on top.
UniProt O14965: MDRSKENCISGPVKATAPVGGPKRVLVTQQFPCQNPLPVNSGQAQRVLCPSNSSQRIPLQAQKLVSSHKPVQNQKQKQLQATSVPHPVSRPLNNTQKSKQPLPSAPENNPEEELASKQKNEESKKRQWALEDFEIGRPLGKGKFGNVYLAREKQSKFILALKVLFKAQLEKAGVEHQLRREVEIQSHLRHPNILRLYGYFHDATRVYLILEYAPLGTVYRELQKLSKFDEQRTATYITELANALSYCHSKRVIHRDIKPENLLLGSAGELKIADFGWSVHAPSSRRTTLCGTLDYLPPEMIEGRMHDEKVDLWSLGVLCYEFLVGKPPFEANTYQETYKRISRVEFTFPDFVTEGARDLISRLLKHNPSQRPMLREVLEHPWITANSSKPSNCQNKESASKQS

The compounds below were run against AURKA (UniProt O14965) (assay: kinase-Nluc reporter destabilization hit call (1 = scored as downregulated) (binary); higher = compound decreases kinase abundance). Settings: K562; 2-18 h.

kinase-Nluc reporter destabilization hit call, inactive:
O=c1cc(O)cc(/C=C/c2ccc(O)c(O)c2)o1 [Hispidin] (10 µM) 0
CC1CN(C(=O)Nc2ccc(Cl)c(Cl)c2)C(=Nc2ccc(F)cc2)S1 (stereo not drawn) (10 µM) 0
COc1cc2c[n+](C)c3c4cc5c(cc4ccc3c2cc1OC)OCO5 [Nitidine (chloride)] (2 µM) 0
Cc1c(CN2CCN(S(C)(=O)=O)CC2)sc2c(N3CCOCC3)nc(-c3cnc(N)nc3)nc12 (2.5 µM) 0
Cc1cc([C@H](C)Nc2ccccc2)c2oc(N3CCOCC3)cc(=O)c2c1 (10 µM) 0
O=C(CNC(=O)c1ccc(-c2ccccc2)cc1)NC1CCCc2ccccc21 (stereo not drawn) [TAO Kinase inhibitor 1] (10 µM) 0
Cn1cc(-c2ccc(CNc3cc(-c4cnc5cc(OCCCN6CCCC6)ccn45)ncn3)cc2)cn1 (10 µM) 0
Cc1ccc(S(=O)(=O)Nc2ccccc2C=Nc2ccccc2NS(=O)(=O)c2ccc(C)cc2)cc1 (10 µM) 0
O=C(/C=C/c1ccc(O)c(O)c1)c1ccc(O[C@@H]2O[C@H](CO)[C@@H](O)[C@H](O)[C@H]2O)c(O)c1O [Marein] (10 µM) 0
O=C(NCCCNc1nc(Nc2cccc(NC(=O)N3CCCC3)c2)ncc1I)c1cccs1 (2.5 µM) 0
CN(CCNc1ccc2ncc(-c3ccc(C(N)=O)cc3)n2n1)C(=O)OC(C)(C)C (10 µM) 0
C=C(C)C(=O)Nc1cccc(-c2ncnc3[nH]cc(C(=O)OCC)c23)c1 (10 µM) 0
COc1ccc(C(=C2C(=O)Nc3ccccc32)c2ccc(OC)cc2)cc1 (10 µM) 0
CN1CCN(c2ccc(C(=O)Nc3cc(-c4cccc(NS(=O)(=O)c5ccccc5)c4)[nH]n3)cc2)CC1 [BPR1J-097 Hydrochloride] (2.5 µM) 0
C=CC(=O)Nc1cc2c(Nc3ccc(OCc4ccccn4)c(Cl)c3)ncnc2cc1OCCN1CCOCC1 (10 µM) 0
Cc1c(NC(=O)OC[C@@H]2COCCN2)cn2ncnc(Nc3ccc4c(cnn4Cc4cccc(F)c4)c3)c12 (10 µM) 0
CNc1nc(Nc2cnn(C3CCN(C4COC4)CC3F)c2Cl)ncc1C(F)(F)F (stereo not drawn) (10 µM) 0
O=C(NCCO)c1ccc2c(c1)nc(Nc1cccc(Cl)c1)c1ccncc12 [CK2 inhibitor 2] (10 µM) 0
N#CC(c1ccnc(NCCc2cccnc2)n1)c1nc2ccccc2s1 (stereo not drawn) (10 µM) 0
CCN(CC)S(=O)(=O)c1ccc(OC)c(N2CCN(C(=O)c3ccc(F)cc3C(F)(F)F)CC2)c1 (10 µM) 0
CO[C@H]1C[C@@H]2CC[C@@H](C)[C@@](O)(O2)C(=O)C(=O)N2CCCC[C@H]2C(=O)O[C@H]([C@H](C)C[C@@H]2CC[C@@H](O)[C@H](OC)C2)CC(=O)[C@H](C)/C=C(\C)[C@@H](O)[C@@H](OC)C(=O)[C@H](C)C[C@H](C)/C=C/C=C/C=C/1C [Rapamycin] (10 µM) 0
CN(C)CCN(Cc1ccc(Cl)cc1)c1ccccn1 [Chloropyramine hydrochloride] (10 µM) 0
O=C(Nc1ccc(F)cc1F)[C@H](NC(=S)Nc1cc(C(F)(F)F)cc(C(F)(F)F)c1)c1ccccc1 (2.5 µM) 0
Cc1ccc(Nc2cc(-c3cccc(N4C(=O)c5ccccc5C4=O)c3)ncn2)cc1NS(C)(=O)=O (10 µM) 0
CC(C)(C)c1ccc(S(=O)(=O)Nc2ccc(-n3ccnc3)cc2)cc1 (10 µM) 0
CCc1cc(O)c(F)cc1-c1ccc2c(-c3nc4c([nH]3)CN(C3CCN(C)CC3)CC4)n[nH]c2c1 [JAK-IN-5 (hydrochloride)] (2 µM) 0
CC1=C2C(=O)O[C@@H](c3ccoc3)[C@]2(C)CCC1 [Fraxinellone] (10 µM) 0
COc1cc(C(N)=O)nc(-c2cccc(C#C[C@]3(O)CCN(C)C3=O)c2)c1 (10 µM) 0
COc1ncc(-c2nc(N3CCOCC3)nc3c(CN4CCC(C(C)(C)O)CC4)cc(F)cc23)cc1NS(C)(=O)=O [Linperlisib] (10 µM) 0
Fc1ccc(-c2nc(-c3ccccc3F)[nH]c2-c2ccncc2)cc1 (2.5 µM) 0
CC(C)=CC[C@H](O)C1=CC(=O)c2c(O)ccc(O)c2C1=O [(-)-Alkannin] (2.5 µM) 0
CC(C)c1cnc(-c2cc(Cl)ccc2F)cc1Nc1ccncc1C(=O)NC(CO)CO (2.5 µM) 0
Cn1cnc(-c2cc3nccc(Oc4ccc(NC(=S)NC(=O)Cc5ccccc5)cc4F)c3s2)c1 [MGCD-265 analog] (10 µM) 0
COC1(c2sc3c(N4CCOCC4)nc(-c4cnc(N)nc4)nc3c2C)COC1 (2.5 µM) 0
Cc1cc(NC(=O)c2cccc(NC(=O)/C=C/CN(C)C)c2)ccc1Nc1nccc(-c2cccnc2)n1 (10 µM) 0
O=C(/C=C/c1ccc(O)c(O)c1)OC1CC(OC(=O)/C=C/c2ccc(O)c(O)c2)(C(=O)O)CC(O)C1O (stereo not drawn) [1,3-Dicaffeoylquinic acid] (10 µM) 0
COc1ccc2c(c1O)OC(C)(C)c1c-2ccc2c1C(=O)N(c1ccc(C(=O)c3ccccc3)cc1)C2=O [Ampkinone] (10 µM) 0
CNC(=O)Nc1ccc(-c2cc(-c3ccnc(Nc4ccc(C)c(S(=O)(=O)N(C)C)c4)n3)ccn2)cc1 [hSMG-1 inhibitor 11e] (2.5 µM) 0

Fetched by structure from above, 2 records:
kinase-Nluc reporter destabilization hit call, inactive:
O=C(Nc1ccc(F)cc1F)[C@H](NC(=S)Nc1cc(C(F)(F)F)cc(C(F)(F)F)c1)c1ccccc1 (2.5 µM) 0
CN(CCNc1ccc2ncc(-c3ccc(C(N)=O)cc3)n2n1)C(=O)OC(C)(C)C (10 µM) 0
